Consider 69 sequences from PubChem BioAssay AID1347426 (Functional Genomics Laboratory (NCATS/FGL), 2020).

Among all 31,000 sequences or so, about 1,400 (4.5%) were called active.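 Rule for the calls: active = median seed-adjusted z-score above 1 or below -1; inactive = the rest.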 The list shows a part of the results.

This experiment is described as follows: Novel Modifiers of Survival Motor Neuron (SMN) Protein: Gene Identification via Genome-wide siRNA Screen.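 Note: luminescence tracks full-length SMN protein made from the SMN2 reporter.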 To be noted: HEK293T SMN2-luciferase reporter, siRNA knockdown, 72 h; actives lie on both sides. A digest of the protocol: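 Each of three siRNAs per gene is reverse-transfected (1 pmol) into reporter HEK293T cells whose luciferase output tracks SMN protein level. After 72 h culture, ONE-Glo luminescence is control-normalized, log10-transformed and MAD-standardized; Common Seed Analysis deprioritizes seed-driven hits.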
On the technique in general: In a reporter assay the amount or activity of a reporter protein is the signal.
As to GGAUACUUUUUGCUAACUUTT against MYO3A, the median seed-adjusted z-score is inactive: 0.0776. Under GCACGCUUAUGGUGGGUGATT against PDXP stands inactive: -0.302. For GGACUGGGAUGAUACACCUTT against SBF2 the value was inactive: 0.569. For GAAUGUCCCUUUAACUGCATT against NFXL1 the value was inactive: 0.118; for ACAUCUGCCUGAUCUCAUATT against INDO, inactive: 0.0511; for GCAAGGCACGGGCUAAAGUTT against AKT2, inactive: 0. For ACUUCUUCCAUGUAGCAUUTT against CD1D, the median seed-adjusted z-score was inactive: -0.579. For GCACCUUCAUGGACGGCUATT against NR4A1 the value was inactive: -0.207. Under GGGUCCGAAUACUUCGUGATT against MSLN stands inactive: -0.344; under GAUCGUGUGAUGUCAAAUATT against FLNB, inactive: 0.243. For CAUGGUGUCUGGUACUUCATT against MAG the value was inactive: -0.0667; for GCAUUACCGCGAUGAAUUATT against DNAI1, inactive: -0.783; for CCCUAUGAAUGUUACGAAUTT against RBAK, inactive: 0. On to AGGCGAUCAUUAUUUCGAATT against DUSP12, for which the median seed-adjusted z-score is inactive: -0.0123.

For the sequence CCACGUUUUAACUUUCUAATT against MBTPS2, the median seed-adjusted z-score was inactive: -0.324. Under GCAUGCCGUGAAACGUAUATT against NUF2 stands inactive: -0.658; under GCACCGUCAAGAUUACGGATT against EIF2AK4, inactive: -0.188. For UCCUCCGCCUGGAAACUCATT against OTX1 the value was inactive: -0.475; for CCCACAAUUUGUGACCGAUTT against ABCE1, inactive: -0.0527. For GUUCCAUCCUGAUUCAAAUTT against PIGM the value was active: 1.36; for AGGUGAUCGUCUCCGUCCATT against TNFRSF14, inactive: 0. As for GCAUCUUCACCAAAGUCAUTT against RHEBL1, the median seed-adjusted z-score was inactive: -0.268. For UGGAGUAAAUAGUUCUAAUTT against UBE2V1, the median seed-adjusted z-score was inactive: 0.745. Under CUACGGAUGUUUGACUUGATT against CALB2 stands inactive: 0. Under CAAGGACAAAUUUCCCGUUTT against HOXD8 stands inactive: -0.883; under CAGGUUCUCUAAUUGAACATT against NFX1, inactive: -0.256; under GACUUAUCCUAUAAUUACUTT against TLR2, inactive: -0.0278. As to CCAUCAUCGUUAUCUACUUTT against SLC5A1, the median seed-adjusted z-score is inactive: -0.812.

On to GAAGAACGGGUGGUACGUATT against JARID2, for which the median seed-adjusted z-score is inactive: 0.115.

GCAGCUCCCUCAACACCUUTT against TBCB: the median seed-adjusted z-score was inactive: 0.69. Consider GUAUCGCACAGGUUCAGUATT against PKP4, for which the median seed-adjusted z-score is inactive: 0.368.

For the sequence GCAUAGCCCAUUAUAGACATT against KCNA1, the median seed-adjusted z-score was inactive: -0.277. Under AAGGGAAAGUGUACUGGUATT against MMP23B stands inactive: 0.288; under AUUCAUUACUAAGGACAAATT against HOXA13, inactive: -0.136; under AAAAGAACGAGGAAGUUAUTT against CACNG2, inactive: 0.00759. Under AGGUCAAUGUGACUUUCCATT against KCNJ10 stands inactive: -0.0371. Under GGAACAACAGGAUUGAGUATT against CLSTN1 stands inactive: 0.0811; under GAAUAUCUAGGUACAUGGATT against ADCY10, inactive: -0.573. GCUUCAGAGUCAACGGACATT against MICB: the median seed-adjusted z-score is inactive: 0.162. For GAGAAGGCCUAUUCAGACATT against ZBTB7C, the median seed-adjusted z-score was inactive: 0.447. Regarding GCUUCUCGGCUGUCCAUGATT against CLCNKB, the median seed-adjusted z-score is inactive: 0.428. For GGAAUAGUGCUGCCGCUAATT against IREB2 the value was inactive: 0.

Turning to UCAAAUACCUAAUCACUAATT against SLC25A28, the median seed-adjusted z-score is inactive: -0.459.

Consider CUAACGUACCUAACCUAUUTT against CHD7, for which the median seed-adjusted z-score was inactive: 0.138. With GGAAUUUCACCGUAAAUCATT against IFIT5, the median seed-adjusted z-score is inactive: 0.

As to CCAAUGCAGAGAACCGAAATT against CACHD1, the median seed-adjusted z-score was inactive: 0.119.

In the case of UGCUACAGAUUAUACCUUUTT against CCND3, the median seed-adjusted z-score was inactive: -0.965. For GUGGUGGUUUGGAUAAUAATT against GNB5 the value was inactive: -0.535. For UCAAAGCACCGUUAACGAATT against CRP the value was inactive: -0.212; for ACAUCAACACGAACCAUGATT against DNM2, inactive: 0.00254; for GCAUACAAGGCACCACGUUTT against ZDHHC6, inactive: 0.199. Under CCAGGUUUGUGGUCCUAUUTT against MAN2A2 stands inactive: -0.0938; under GGACCGAACUUUCCACUGUTT against ZNF385A, inactive: -0.968; under GGAGAUUUUUGGAUGUUUUTT against ACOX3, inactive: 0.658. In the case of GCACCGAUGUAGAUUAUGATT against SEL1L, the median seed-adjusted z-score is inactive: 0.438.

For the sequence GGAAGUUUUGGGACAAUAUTT against PCDHB3, the median seed-adjusted z-score was inactive: 0.304. Take CGGCUCCAUUAACAUCUAUTT against ENC1: the median seed-adjusted z-score is inactive: -0.132. Consider GGAGUGGACAGUGCAAUGATT against EGFL7, for which the median seed-adjusted z-score is inactive: 0.8.

Turning to UCACGCUCCUGGACCAUUUTT against SLC6A3, the median seed-adjusted z-score was inactive: 0.457. As to AGCUCAUGUUGCUACAGCATT against SLC30A8, the median seed-adjusted z-score is inactive: -0.767. Under GCAAGUUAUUGUAUCUUGATT against SAT1 stands inactive: -0.00791; under GGCUCAAAUUCUCAGCUGATT against ATF6, inactive: 0.26. Under GCAUAGAUGUGGAUAGCUUTT against CFTR stands active: -1.23.

Turning to GGUUUGUCGUCAGUCCCUUTT against ELOVL5, the median seed-adjusted z-score is inactive: -0.734. For GCAGAAAUGACACCAAUAATT against NMB, the median seed-adjusted z-score is inactive: 0.746. For CGGUGACCAUAGUACAACATT against FOXK2 the value was inactive: -0.348. As for GGCCUGGAAUGAACUGAAATT against MUSK, the median seed-adjusted z-score was inactive: 0.138. For GAAUUGGAGAGCACCAAUATT against POLR2B the value was active: -4.81. Under AGUGAACUCCGGUCCUGCATT against RAB11FIP3 stands inactive: 0.0361.
